Measurements: article PMC7878818
Positions count from the first letter of the chain named. Results are given in words; binding and its absence hold for the method and conditions named. In cells and extracts the contact can be indirect. Some entries that bind do so weakly or less than the wild type. Tags and fused reporters may be left off the sequences shown. Blank lines part the entries; values can stand above or below the binder they belong to.

Experiments:
[1] = target: Flag-tagged C11orf84 (human) (UniProt Q9BUA3); assay: co-IP; Flag- and Myc-tagged plasmids co-transfected into HEK293T; lysate in NP40 buffer (50 mM Tris pH 7.5, 150 mM NaCl, 1 mM EDTA, 1% NP40); anti-Flag M2 beads 1 h; immunoblot
[2] = target: T1, Flag-tagged C11orf84 (human), Q9BUA3; assay: as above; settings: remark: other sources report otherwise
T1 chain: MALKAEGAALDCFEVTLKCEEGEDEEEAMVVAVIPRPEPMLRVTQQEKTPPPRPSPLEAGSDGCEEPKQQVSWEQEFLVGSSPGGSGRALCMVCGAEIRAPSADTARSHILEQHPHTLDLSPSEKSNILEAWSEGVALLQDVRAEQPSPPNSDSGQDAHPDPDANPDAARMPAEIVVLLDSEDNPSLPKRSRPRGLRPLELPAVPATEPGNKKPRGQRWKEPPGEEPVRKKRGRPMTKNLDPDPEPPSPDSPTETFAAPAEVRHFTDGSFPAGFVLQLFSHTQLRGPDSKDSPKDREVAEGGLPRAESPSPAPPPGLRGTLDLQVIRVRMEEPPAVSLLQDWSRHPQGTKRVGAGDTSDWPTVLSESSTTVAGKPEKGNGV

[3] = target: T2, C11orf84 (wild type, tagged, expressed in HEK293T cells) (human), Q9BUA3; assay: co-IP; HEK293T co-transfected with Flag- and Myc-tagged plasmids; NP40 buffer (50 mM Tris pH 7.5, 150 mM NaCl, 1 mM EDTA, 1% NP40); anti-Flag M2 beads, 1 h; immunoblot; settings: remark: other sources report otherwise
T2 chain: T1 chain

B1: Myc-tagged Spindlin2A (protein)
chain: MKTPNAQEAEGQQTRAAAGRATGSANMTKKKVSQKKQRGRPSSQPCRNIVGCRISHGWKEGDEPITQWKGTVLDQVPINPSLYLVKYDGIDCVYGLELHRDERVLSLKILSDRVASSHISDANLANTIIGKAVEHMFEGEHGSKDEWRGMVLAQAPIMKAWFYITYEKDPVLYMYQLLDDYKEGDLRIMPESSESPPTEREPGGVVDGLIGKHVEYTKEDGSKRIGMVIHQVETKPSVYFIKFDDDFHIYVYDLVKKS
binding [1]: binds

B2: Myc-tagged Spindlin2B (protein)
chain: B1 chain with C46R, T234A
binding [1]: binds

B3: Myc-tagged Spindlin3 (protein)
chain: MKTPFGKAAAGQRSRTGAGHGSVSVTMIKRKAAHKKHRSRPTSQPRGNIVGCRIQHGWKDGDEPLTQWKGTVLDQVPVNPSLYLIKYDGFDCVYGLELHRDERVSSLEVLPNRVASSRISDTHLAEIMVGKAVEHIFETEEGSKNEWRGMVLAQAPVMNTWFYITYEKDPVLYMYQLLDDYKDGDLRILQDSNDSPLAEREPGEVIDSLVGKQVEYAKDDGSKRTGMVIHQVEAKPSVYFIKFDDDFHIYVYDLVKTS
binding [1]: binds

More lines, now with the values ahead:

binding [2]: binds
B4: Myc-tagged Spindlin4 (protein)
chain: MSPPTVPPMGVDGVSAYLMKKRHTHRKQRRKPTFLTRRNIVGCRIQHGWKEGNEPVEQWKGTVLEQVSVKPTLYIIKYDGKDSVYGLELHRDKRVLALEILPERVPTPRIDSRLADSLIGKAVEHVFEGEHGTKDEWKGMVLARAPVMDTWFYITYEKDPVLYMYTLLDDYKDGDLRIIPDSNYYFPTAEQEPGEVVDSLVGKQVEHAKDDGSKRTGIFIHQVVAKPSVYFIKFDDDIHIYVYGLVKTP

binding [3]: binds
B5: Spindlin4, Q56A73 1-249 (protein)
chain: B4 chain
